These are yes or no findings as the source states them, for the method shown. Binding can be weak; no strength is given. For some assays here: Binding seen in cells or lysates may run through a third protein. Values belong to the substance of their own block, whether it stands above or below them.
Assays:
[1] = target: C3G (endogenous, isoform not told in the immunoprecipitations) (human (endogenous in K562)) (UniProt Q13905); test: co-IP; endogenous proteins immunoprecipitated from precleared K562 whole cell lysates (GammaBind G Sepharose), immunoblot; in Figures 5A and 6E cells cultured on 10 ug/ml fibronectin for 24 h; in Figure 6E shC3G or shCT clones
[2] = target: BTK SH3 domain (SH3 domain array) (UniProt Q06187); test: peptide or protein array; Panomics SH3 Domain Arrays I and II: immobilised SH3 domains fused to GST, hybridised with purified N-terminally His-tagged SH3-b domain, detected with peroxidase-conjugated anti-His antibody and ECL; both purified
[3] = target: SNX9 SH3 domain (SH3 domain array) (UniProt Q9Y5X1); test: as above
[4] = target: SPCN SH3 domain (SH3 domain array) (UniProt Q13813); test: as above
[5] = target: T1, TXK SH3 domain (SH3 domain array) (UniProt P42681); test: as above
T1 sequence: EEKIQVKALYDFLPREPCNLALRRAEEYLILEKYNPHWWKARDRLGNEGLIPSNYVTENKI

Protein sequences, listed by entry. Tags and fused reporters are not part of them. Lines headed by an entry give the natural chain unless they say otherwise; changes in a name come on top. Residues count along the entry.
UniProt Q06187, residues 214-274: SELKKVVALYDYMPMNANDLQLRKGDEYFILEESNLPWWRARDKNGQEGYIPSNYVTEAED
UniProt Q9Y5X1, residues 1-62: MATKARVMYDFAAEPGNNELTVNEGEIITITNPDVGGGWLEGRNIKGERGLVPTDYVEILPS
UniProt P42684, residues 107-167: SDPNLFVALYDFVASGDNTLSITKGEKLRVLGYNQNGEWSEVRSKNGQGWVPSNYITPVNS
UniProt Q9NYB9, residues 451-510: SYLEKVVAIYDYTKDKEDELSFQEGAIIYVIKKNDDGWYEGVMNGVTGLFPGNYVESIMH
UniProt Q92968, residues 272-336: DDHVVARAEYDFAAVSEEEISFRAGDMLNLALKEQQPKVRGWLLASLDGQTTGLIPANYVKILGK
UniProt P06239: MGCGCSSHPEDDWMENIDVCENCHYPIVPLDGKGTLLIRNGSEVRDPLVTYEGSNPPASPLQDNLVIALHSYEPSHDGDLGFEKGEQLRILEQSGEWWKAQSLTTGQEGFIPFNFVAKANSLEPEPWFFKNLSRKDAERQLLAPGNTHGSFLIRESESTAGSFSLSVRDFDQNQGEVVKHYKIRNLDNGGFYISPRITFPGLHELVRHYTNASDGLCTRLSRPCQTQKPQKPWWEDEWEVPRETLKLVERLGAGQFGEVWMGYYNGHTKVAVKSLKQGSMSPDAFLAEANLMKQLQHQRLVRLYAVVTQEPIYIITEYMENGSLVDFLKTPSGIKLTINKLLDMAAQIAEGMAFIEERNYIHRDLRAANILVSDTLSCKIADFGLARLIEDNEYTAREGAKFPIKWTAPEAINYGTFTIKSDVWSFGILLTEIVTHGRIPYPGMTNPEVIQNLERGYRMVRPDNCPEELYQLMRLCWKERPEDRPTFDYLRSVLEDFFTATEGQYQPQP
UniProt Q9UKW4: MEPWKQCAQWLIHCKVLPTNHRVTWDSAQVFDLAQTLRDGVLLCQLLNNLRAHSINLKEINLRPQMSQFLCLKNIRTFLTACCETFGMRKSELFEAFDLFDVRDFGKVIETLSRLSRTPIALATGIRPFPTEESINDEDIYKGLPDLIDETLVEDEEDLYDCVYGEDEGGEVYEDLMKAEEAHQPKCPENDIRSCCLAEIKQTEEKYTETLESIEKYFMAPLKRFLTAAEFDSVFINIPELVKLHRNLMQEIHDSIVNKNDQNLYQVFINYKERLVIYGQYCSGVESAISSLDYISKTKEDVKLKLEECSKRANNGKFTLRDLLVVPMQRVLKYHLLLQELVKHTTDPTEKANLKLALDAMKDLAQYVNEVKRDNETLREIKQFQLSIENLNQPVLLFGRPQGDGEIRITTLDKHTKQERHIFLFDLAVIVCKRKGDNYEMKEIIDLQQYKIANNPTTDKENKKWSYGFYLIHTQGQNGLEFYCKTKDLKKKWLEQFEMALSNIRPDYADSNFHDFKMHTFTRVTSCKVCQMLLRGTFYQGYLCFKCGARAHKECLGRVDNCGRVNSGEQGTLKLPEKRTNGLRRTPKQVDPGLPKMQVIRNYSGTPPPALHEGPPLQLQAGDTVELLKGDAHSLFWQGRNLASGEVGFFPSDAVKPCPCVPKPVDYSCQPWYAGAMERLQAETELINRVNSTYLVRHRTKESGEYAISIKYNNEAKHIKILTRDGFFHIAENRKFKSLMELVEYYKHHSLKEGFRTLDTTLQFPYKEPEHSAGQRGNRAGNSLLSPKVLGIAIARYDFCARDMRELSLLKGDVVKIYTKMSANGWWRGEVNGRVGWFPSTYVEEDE
UniProt P52735: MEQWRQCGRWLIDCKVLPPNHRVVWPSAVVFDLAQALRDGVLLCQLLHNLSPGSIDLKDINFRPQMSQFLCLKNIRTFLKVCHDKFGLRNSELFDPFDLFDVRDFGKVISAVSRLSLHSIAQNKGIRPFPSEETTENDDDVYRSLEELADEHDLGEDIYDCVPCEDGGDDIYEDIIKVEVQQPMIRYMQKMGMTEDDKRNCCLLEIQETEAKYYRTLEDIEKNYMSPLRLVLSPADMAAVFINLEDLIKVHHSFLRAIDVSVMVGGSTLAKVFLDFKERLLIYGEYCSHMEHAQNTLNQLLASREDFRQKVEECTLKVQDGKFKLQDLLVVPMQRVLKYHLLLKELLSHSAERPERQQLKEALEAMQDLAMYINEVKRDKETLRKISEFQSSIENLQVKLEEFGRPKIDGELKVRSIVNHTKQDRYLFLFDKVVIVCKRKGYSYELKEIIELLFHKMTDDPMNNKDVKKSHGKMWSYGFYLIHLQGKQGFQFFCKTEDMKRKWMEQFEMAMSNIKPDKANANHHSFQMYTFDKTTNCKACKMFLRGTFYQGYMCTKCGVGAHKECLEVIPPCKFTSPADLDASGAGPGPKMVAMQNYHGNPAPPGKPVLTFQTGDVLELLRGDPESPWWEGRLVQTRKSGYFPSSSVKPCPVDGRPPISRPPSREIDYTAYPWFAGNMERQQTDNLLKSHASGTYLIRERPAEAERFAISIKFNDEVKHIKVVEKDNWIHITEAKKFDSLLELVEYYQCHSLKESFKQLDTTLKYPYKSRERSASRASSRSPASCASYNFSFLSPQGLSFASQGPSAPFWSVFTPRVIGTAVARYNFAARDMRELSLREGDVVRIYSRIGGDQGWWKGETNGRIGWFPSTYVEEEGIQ
UniProt Q15700, residues 536-606: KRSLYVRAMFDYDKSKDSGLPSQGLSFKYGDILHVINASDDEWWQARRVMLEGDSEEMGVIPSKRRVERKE
UniProt O60504: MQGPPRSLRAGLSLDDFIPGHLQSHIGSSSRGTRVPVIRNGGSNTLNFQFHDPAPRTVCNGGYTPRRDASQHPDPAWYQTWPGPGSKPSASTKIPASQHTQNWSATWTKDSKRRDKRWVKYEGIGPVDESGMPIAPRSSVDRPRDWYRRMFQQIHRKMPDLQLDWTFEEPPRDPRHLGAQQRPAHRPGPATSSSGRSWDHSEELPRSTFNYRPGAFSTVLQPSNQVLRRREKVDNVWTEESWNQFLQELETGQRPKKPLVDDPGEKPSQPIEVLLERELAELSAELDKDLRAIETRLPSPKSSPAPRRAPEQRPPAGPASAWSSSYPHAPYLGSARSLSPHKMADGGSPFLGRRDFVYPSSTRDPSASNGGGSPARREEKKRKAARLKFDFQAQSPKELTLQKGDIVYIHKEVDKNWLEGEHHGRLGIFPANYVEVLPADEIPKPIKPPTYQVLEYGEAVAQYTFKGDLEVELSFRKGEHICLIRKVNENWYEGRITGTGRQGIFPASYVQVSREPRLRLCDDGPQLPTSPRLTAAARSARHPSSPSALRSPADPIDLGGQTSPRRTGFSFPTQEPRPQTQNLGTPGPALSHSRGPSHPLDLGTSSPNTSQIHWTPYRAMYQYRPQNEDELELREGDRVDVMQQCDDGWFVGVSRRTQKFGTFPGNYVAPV
UniProt Q99961, residues 306-365: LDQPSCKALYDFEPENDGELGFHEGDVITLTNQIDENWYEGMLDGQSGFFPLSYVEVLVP
UniProt Q92783, residues 210-269: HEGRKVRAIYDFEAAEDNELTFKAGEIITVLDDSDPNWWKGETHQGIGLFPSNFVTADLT
UniProt P42680, residues 179-239: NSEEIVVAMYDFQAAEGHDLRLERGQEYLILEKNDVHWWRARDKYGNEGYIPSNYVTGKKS
UniProt Q14247, residues 492-550: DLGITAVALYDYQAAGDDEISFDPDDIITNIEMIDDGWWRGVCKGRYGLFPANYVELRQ
UniProt P15498: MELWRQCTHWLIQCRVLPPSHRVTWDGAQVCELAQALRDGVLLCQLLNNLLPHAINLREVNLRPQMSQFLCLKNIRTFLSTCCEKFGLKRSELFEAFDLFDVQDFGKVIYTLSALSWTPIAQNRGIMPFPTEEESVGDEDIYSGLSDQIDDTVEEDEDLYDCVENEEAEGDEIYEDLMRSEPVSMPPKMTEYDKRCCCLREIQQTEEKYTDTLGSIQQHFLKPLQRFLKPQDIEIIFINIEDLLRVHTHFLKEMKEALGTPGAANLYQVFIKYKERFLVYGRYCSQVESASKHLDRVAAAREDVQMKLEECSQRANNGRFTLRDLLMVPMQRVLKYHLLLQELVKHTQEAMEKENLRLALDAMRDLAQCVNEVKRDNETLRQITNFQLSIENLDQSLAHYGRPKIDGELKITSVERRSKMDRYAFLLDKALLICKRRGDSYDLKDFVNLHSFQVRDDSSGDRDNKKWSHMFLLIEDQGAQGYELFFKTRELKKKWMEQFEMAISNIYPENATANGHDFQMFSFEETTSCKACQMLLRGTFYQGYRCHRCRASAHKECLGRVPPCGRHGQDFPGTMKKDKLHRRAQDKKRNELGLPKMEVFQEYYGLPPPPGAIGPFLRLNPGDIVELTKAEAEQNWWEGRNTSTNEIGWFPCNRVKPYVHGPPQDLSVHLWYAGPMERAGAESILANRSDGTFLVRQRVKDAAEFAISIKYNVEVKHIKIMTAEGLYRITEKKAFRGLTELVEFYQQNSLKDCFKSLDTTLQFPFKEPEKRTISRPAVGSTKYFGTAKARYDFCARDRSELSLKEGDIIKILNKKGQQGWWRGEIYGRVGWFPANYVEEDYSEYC
UniProt P46109: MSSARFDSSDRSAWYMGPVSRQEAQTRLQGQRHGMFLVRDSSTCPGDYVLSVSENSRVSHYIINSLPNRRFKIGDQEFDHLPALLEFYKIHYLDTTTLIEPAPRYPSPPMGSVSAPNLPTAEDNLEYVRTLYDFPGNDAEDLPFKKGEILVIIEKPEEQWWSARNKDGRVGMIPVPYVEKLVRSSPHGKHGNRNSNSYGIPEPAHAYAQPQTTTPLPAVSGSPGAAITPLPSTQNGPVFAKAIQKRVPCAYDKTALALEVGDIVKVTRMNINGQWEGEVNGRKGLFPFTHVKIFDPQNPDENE
UniProt Q8IZP0: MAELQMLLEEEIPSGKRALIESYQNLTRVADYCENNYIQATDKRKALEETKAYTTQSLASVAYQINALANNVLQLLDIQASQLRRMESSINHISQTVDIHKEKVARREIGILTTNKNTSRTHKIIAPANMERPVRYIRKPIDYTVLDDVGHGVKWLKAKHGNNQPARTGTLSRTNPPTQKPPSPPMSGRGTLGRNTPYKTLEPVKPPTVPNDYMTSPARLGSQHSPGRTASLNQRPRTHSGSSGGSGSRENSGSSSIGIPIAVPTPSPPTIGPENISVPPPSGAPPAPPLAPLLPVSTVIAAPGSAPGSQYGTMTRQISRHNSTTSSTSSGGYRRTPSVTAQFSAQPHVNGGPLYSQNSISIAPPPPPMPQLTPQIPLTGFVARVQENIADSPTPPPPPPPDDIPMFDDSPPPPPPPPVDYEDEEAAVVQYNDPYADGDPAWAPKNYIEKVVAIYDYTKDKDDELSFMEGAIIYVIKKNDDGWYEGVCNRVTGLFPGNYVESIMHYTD
UniProt Q05397: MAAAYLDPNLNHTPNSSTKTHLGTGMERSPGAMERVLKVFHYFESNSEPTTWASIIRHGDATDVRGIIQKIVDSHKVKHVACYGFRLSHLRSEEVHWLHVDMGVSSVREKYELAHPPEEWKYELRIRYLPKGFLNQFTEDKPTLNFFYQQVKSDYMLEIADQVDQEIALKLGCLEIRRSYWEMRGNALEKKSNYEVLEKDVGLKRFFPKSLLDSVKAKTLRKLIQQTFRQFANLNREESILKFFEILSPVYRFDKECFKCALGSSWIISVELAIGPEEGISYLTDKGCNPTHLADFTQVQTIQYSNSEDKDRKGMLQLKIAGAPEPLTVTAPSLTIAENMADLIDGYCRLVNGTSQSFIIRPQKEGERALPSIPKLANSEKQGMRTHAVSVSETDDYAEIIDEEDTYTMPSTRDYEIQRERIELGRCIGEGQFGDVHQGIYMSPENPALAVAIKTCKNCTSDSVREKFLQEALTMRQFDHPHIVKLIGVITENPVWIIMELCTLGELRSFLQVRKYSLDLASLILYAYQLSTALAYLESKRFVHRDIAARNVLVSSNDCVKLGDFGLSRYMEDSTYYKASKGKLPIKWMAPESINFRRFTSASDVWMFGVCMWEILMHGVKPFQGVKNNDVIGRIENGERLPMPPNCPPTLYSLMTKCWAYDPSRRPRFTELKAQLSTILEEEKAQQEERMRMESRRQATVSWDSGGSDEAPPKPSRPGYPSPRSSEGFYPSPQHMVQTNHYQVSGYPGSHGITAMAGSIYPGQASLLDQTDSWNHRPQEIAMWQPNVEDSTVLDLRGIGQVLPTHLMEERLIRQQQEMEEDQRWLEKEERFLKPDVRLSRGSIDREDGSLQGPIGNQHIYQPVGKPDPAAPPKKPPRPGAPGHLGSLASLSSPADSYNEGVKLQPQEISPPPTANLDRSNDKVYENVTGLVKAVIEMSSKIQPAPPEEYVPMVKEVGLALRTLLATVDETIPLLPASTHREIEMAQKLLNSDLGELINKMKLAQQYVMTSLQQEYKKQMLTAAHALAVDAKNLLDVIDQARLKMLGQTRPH

[6] = target: Abl SH3 domain (SH3 domain array) (UniProt P00519); test: as above
[7] = target: Abl2 (ARG) SH3 domain (SH3 domain arrays) (UniProt P42684); test: as above
[8] = target: PI3α SH3 domain (SH3 domain array) (UniProt P27986); test: as above
[9] = target: Abi2-SH3 domain (AbI2B) (SH3 domain array) (UniProt Q9NYB9); test: as above
[10] = target: T2, OSF SH3 domain (SH3 domain array) (UniProt Q92882); test: as above
T2 sequence: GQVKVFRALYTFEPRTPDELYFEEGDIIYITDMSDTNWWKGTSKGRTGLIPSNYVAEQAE

[11] = target: PEXD SH3 domain (SH3 domain array) (UniProt Q92968); test: as above
[12] = target: NOF2-D1 SH3 domain (SH3 domain arrays) (UniProt P19878); test: as above
[13] = target: LCK SH3 domain (SH3 domain array) (UniProt P06239); test: as above
[14] = target: VAV3-D2 SH3 domain (SH3 domain array) (UniProt Q9UKW4); test: as above
[15] = target: VAV2-D2 SH3 domain (SH3 domain array) (UniProt P52735); test: as above
[16] = target: T3, PIG2 SH3 domain (SH3 domain array) (UniProt P16885); test: as above
T3 sequence: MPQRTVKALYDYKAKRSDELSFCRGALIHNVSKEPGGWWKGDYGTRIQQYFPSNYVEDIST

[17] = target: T4, Itk SH3 domain (SH3 domain array) (UniProt Q08881); test: as above
T4 sequence: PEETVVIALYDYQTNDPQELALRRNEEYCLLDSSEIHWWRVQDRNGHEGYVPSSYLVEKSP

[18] = target: Dlg2 SH3 domain (SH3 domain array) (UniProt Q15700); test: as above
[19] = target: VINE-D3 SH3 domain (SH3 domain array) (UniProt O60504); test: as above
[20] = target: SH3-1 (SH3-containing GRB2-like protein 1) SH3 domain (SH3 domain array) (UniProt Q99961); test: as above
[21] = target: Stam SH3 domain (SH3 domain array) (UniProt Q92783); test: as above
[22] = target: Tec SH3 domain (SH3 domain array) (UniProt P42680); test: as above
[23] = target: T5, M3KA SH3 domain (SH3 domain array) (UniProt Q02779); test: as above
T5 sequence: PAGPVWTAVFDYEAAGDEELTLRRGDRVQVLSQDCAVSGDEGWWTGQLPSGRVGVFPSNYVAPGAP

[24] = target: cortactin SH3 domain (SH3 domain array) (UniProt Q14247); test: as above
[25] = target: VAV-D1 SH3 domain (SH3 domain array) (UniProt P15498); test: as above
[26] = target: p38α MAPK (human (endogenous in K562)) (UniProt Q16539); test: co-IP; endogenous proteins immunoprecipitated from precleared K562 whole cell lysates (GammaBind G Sepharose), immunoblot; in Figures 5A and 6E cells cultured on 10 ug/ml fibronectin for 24 h; in Figure 6E shC3G or shCT clones
[27] = target: CrkL (human (endogenous in K562)) (UniProt P46109); test: as above

Substance: CrkL (from UniProt P46109 1-303)
- binding [1]: binds weakly

Substance: His-tagged-Cbl-SH3-b domain (from UniProt P22681) (domain or fragment)
- binding [2]: binds
- binding [3]: binds
- binding [4]: binds
- binding [5]: binds
- binding [6]: binds
- binding [7]: binds
- binding [8]: binds
- binding [9]: binds
- binding [10]: binds
- binding [11]: binds
- binding [12]: binds
- binding [13]: binds
- binding [14]: binds
- binding [15]: binds
- binding [16]: binds
- binding [17]: binds
- binding [18]: binds
- binding [19]: binds
- binding [20]: binds
- binding [21]: binds
- binding [22]: binds
- binding [23]: binds
- binding [24]: binds
- binding [25]: binds

Substance: p38α MAPK (from UniProt Q16539 1-360)
- binding [1]: binds

Substance: paxillin (from UniProt P49023 1-591)
- binding [1]: binds

Substance: phospho-paxillin p68 isoform (from UniProt P49023 1-591)
- binding [1]: binds

More lines, now with the values ahead:

- binding [1]: binds
Substance: Abi1 (from UniProt Q8IZP0 1-508)

- binding [1]: binds
Substance: FAK (from UniProt Q05397 1-1052)

- binding [26]: binds
- binding [27]: binds
Substance: C3G (endogenous, isoform not told in the immunoprecipitations) (from UniProt Q13905)

Reference: article PMC3629710
